What all share (test): pull-down; GST-Hax-1 domains D1-D5 on glutathione Sepharose 4B beads incubated with 2 mg SKOV3 lysate, 4 hours at 4°C; GST-lysis buffer 150 mM NaCl, 20 mM Tris pH 8.0, 1 mM MgCl2, 0.1% NP40, 10% glycerol; washed five times; immunoblot for Rac1 or cortactin; only the target purified
Assay [1] has as its target GST-Hax-D1 (Hax-1 amino acids 1-56) (UniProt O00165).
Assay [2] has as its target GST-Hax-D3 (Hax-1 amino acids 113-168) (UniProt O00165).
The target of assay [3] is GST-Hax-D4 (Hax-1 amino acids 169-224) (UniProt O00165).

By UniProt entry, the sequences of proteins in these tests, tags left out.
UniProt Q14247: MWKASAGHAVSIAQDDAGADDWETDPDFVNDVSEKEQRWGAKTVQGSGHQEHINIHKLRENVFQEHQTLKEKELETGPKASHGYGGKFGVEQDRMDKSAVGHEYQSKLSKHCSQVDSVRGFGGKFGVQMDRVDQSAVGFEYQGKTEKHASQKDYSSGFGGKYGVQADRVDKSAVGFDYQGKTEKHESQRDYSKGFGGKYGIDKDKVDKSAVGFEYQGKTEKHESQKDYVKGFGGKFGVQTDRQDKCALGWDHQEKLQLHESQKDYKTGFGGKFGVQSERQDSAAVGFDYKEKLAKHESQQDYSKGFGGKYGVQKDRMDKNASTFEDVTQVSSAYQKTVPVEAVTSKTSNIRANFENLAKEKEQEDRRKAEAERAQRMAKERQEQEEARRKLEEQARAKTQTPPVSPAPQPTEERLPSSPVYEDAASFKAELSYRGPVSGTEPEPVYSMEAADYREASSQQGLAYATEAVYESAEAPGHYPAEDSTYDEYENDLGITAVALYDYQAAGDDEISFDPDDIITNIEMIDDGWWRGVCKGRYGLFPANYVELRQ

Results are given in words; binding and its absence hold for the method and conditions named. In cells and extracts the contact can be indirect. Some binding calls cover weakened binding; strength is not graded here.

Turning to cortactin (from UniProt Q14247 1-550), the binding entry in assay [1] is “binds”; in assay [2] it was “binds”; in assay [3] it was “binds weakly”.

Source of the values: article PMC4091533.
